Measured values: article PMC5837968
Results are given in words; binding and its absence hold for the method and conditions named. Binding seen in cells or lysates may run through a third protein. Some entries that bind do so weakly or less than the wild type.

By UniProt entry, the sequences of proteins in these tests, tags left out.
UniProt Q13489: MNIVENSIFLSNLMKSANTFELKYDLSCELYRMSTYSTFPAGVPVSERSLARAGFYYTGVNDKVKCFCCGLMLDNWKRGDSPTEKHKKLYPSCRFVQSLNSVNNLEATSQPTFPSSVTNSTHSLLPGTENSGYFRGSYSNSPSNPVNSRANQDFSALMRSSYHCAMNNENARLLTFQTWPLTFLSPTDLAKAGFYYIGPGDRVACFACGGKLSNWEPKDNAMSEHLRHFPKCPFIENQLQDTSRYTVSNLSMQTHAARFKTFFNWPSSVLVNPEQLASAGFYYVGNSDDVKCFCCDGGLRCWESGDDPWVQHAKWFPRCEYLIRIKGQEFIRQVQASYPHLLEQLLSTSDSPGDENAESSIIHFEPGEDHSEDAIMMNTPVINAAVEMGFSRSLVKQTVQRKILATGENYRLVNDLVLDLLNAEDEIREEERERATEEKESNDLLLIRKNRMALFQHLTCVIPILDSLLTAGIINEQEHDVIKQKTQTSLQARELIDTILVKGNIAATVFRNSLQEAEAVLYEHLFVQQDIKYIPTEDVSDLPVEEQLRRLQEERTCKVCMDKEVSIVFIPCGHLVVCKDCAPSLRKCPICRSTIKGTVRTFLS

Target: T1, Interferon regulatory factor 1 (IRF-1) (human (endogenous in hTLR7-HEK293)) (UniProt P10914)
T1 sequence: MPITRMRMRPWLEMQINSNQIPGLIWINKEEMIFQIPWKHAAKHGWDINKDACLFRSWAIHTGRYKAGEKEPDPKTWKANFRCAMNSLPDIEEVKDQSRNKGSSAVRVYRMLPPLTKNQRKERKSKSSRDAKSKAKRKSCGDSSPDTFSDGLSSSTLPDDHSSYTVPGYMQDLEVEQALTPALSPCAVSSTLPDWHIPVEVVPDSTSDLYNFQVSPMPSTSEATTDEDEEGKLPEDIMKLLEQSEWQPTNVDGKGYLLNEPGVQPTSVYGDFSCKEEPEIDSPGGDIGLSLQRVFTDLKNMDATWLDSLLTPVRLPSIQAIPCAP
Experiment: co-IP; lysates of hTLR7-HEK293 cells, untreated or stimulated with R848 (10 µM, 2 h), with or without PP2 (20 µM, 30 min) pretreatment; precipitated overnight at 4°C with anti-IRF-1 crosslinked to Protein G Dynabeads; immunoblot

binding: binds
Substance: cIAP2 (from UniProt Q13489 1-604) (enzyme)
